This is an account of results in PubChem BioAssay AID493014 (National Center for Advancing Translational Sciences (NCATS), 2011).

Several values for one entry are separate records, joined by “and”; a condition that tells them apart may be missing. Equal values may be shown once. Some of the results follow. Shown are side measurements of this screen, not its main read-out; they come without a call. Compounds called inactive in the main read-out are mostly missing here. The note in brackets gives the kind of curve behind each potency; many fits are weak.

The assay can be described thus: qHTS Assay to Find Inhibitors of Chronic Active B-Cell Receptor Signaling. The note with it: ABC-DLBCL IkBa-CBG/CBR reporter, luminescence ratio (green luciferase fused to IkBa over red control in TMD8 lymphoma cells), 4 h. A digest of the protocol: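 Concentration-response series (up to 46 uM) were applied to TMD8 dual-reporter cells for 4 h at 37C with doxycycline. Green/red ratio, after filter-overlap correction, defined %Activity; red signal alone was normalised to basal cells and zero luminescence.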
For orientation: qHTS replaces the single test concentration by a dilution series.

Where [1] appears, read: measured here: CBR red luminescence, cell number.
The mark [2] stands for this setting: measured here: IkBa-CBG green luminescence.

As a reminder, the AC50 is the concentration giving half of the maximal activity seen. Turning to `O=C1c2ccccc2NC(c2c(Cl)cccc2Cl)N1Cc1ccccc1` (stereo not given), the AC50 under setting [1] was 10 µM [falling, partial curve].
Still for that read-out and setting: the same measure for `COc1ccc(C(=O)C(CN2CCOCC2)c2ccccc2)cc1F` (stereo not given): 7.08 µM [falling, partial curve]; for `O=C(COC(=O)c1ccccc1C(=O)c1ccccc1)Nc1cccc([N+](=O)[O-])c1`: 13 µM [falling, partial curve, poor fit].
The same measure, in the same setting: to `CC(NC(=O)Nc1cccc(Cl)c1)C(c1cccs1)N1CCCC1` (stereo not given) belongs 6.51 µM [rising, single point]; to `Cc1cccc(OCC(=O)Nc2sc3c(c2C#N)CCC3)c1`, 6.51 µM [rising, partial curve, poor fit]; to `CC1(c2ccc(Cl)cc2)NC(=O)N(CC(=O)N2CCc3ccccc3C2)C1=O` (stereo not given), 32.6 µM [falling, single point].
For `CNC(=S)NCCc1ccc(OC)c(OC)c1`, under setting [1], the AC50 was 3.16 µM [rising, partial curve, poor fit].
Same read-out and setting: to `CC(C)CCNC(=O)C(=O)NCC1OCCCN1S(=O)(=O)c1cccs1` (stereo not given) belongs 10 µM [rising, partial curve]; to `CC(=O)Nc1cccc(NC(=O)c2cccc3cccnc23)c1`, 1.41 µM [rising, partial curve, poor fit].
The same measure, in the same setting: to `COc1ccccc1/C=C/C=N/NC(=O)c1cc(-c2ccc(C)o2)[nH]n1` belongs 10 µM [falling, partial curve, poor fit].
For the molecule `O=C(CSc1n[nH]c(-c2cccnc2)n1)Nc1ccc(Cl)cc1`, the AC50 is 17.8 µM [falling, single point] under setting [1] and 35.5 µM [rising, partial curve, poor fit] under setting [2].
In the case of `COc1cc(-c2nc(C(=O)NC3CCCCC3)cc3c2[nH]c2ccccc23)cc(OC)c1OC`, the AC50 is, setting by setting: under setting [1], 8.91 µM [rising, partial curve]; under setting [2], 11.2 µM [falling, partial curve, poor fit].
Consider `COc1ccc(NC(=O)CCN2CCCC(C)C2)cc1` (stereo not given), for which, under setting [1], the AC50 was 29.1 µM [rising, partial curve, poor fit].
On to `CC(=O)c1c(N2CCOCC2)nc(=S)n(-c2ccccc2)c1C`, for which, under setting [1], the AC50 is 2.31 µM [rising, partial curve, poor fit].
`O=C(COc1ccc(C(=O)c2ccc(F)cc2)cc1)NCc1ccc(F)cc1`: the AC50 was 6.51 µM [rising, single point] under setting [1] and 3.26 µM [falling, full curve] under setting [2].
For the molecule `O=C(CCNS(=O)(=O)c1ccc(Br)cc1)N1CCN(c2ccccc2O)CC1`, under setting [1], the AC50 is 23.1 µM [rising, partial curve, poor fit].
On to `COc1ccccc1/C=C/C=N/n1c(-c2ccccc2)n[nH]c1=S`, for which the AC50 under setting [1] was 1.12 µM [falling, full curve, poor fit].
The same measure, in the same setting: the same measure for `COCC(=O)Nc1ccc(C(C)C)cc1`: 9.2 µM [rising, partial curve, poor fit]; for `O=C(Nc1cccc(NC(=O)c2ccccc2[N+](=O)[O-])n1)c1ccccc1[N+](=O)[O-]`: 25.1 µM [falling, single point].
In the case of `CCOc1cc(Br)c(C=O)cc1OCC`, the AC50 under setting [1] was 7.94 µM [rising, partial curve] and the concentration at half-maximal activity (AC50) under setting [2] was 7.08 µM [falling, full curve].
Turning to `Cc1nnc(Oc2ccccc2F)c2ccccc12`, under setting [1], the AC50 is 35.5 µM [rising, single point].
Take `Cc1cc(NC(=S)Nc2ccccc2)ccc1Br`: the concentration at half-maximal activity (AC50) under setting [1] is 11.2 µM [rising, partial curve].
Still for that read-out and setting: the same measure for `COc1ccc(Cl)cc1Nc1nc(-c2sc(NC(=O)c3ccco3)nc2C)cs1`: 2.82 µM [falling, full curve]; for `Oc1cc(-c2ccc(N3CCCCC3)nc2)cc2cccnc12`: 32.6 µM [falling, single point] and 5.8 µM [rising, partial curve, poor fit].
Take `CC(=O)[C@@H]1[C@@H](C(=O)c2ccc(F)cc2)[C@]2(C(=O)Nc3ccccc32)[C@H]2C=Cc3cc(F)ccc3N12`: the half-maximal activity concentration (AC50) under setting [1] was 35.5 µM [falling, single point].
Same read-out and setting: to `COCCCNC(=O)/C(C#N)=C/c1ccc(F)cc1` belongs 28.2 µM [falling, single point]; to `COc1ccc(C(=O)COC(=O)c2ccc(-n3cnnn3)cc2)c(OC)c1`, 23.1 µM [falling, partial curve, poor fit].
Still for that read-out and setting: to `COc1ccc(CNC(=O)CNC(=O)N2CC(=O)Nc3ccccc32)cc1` belongs 28.2 µM [rising, single point]; to `COc1ccc(Cl)cc1C(=O)NNC(=O)c1cccnc1`, 9.2 µM [falling, partial curve]; to `O=C(Nc1ccc2c(c1)OCO2)c1c(F)c(F)c(F)c(F)c1F`, 16.4 µM [falling, single point].
Consider `NC(=O)COC(=O)/C=C/c1ccc2ccccc2n1`, for which the AC50 under setting [1] is 25.1 µM [falling, single point] and the AC50 under setting [2] is 11.2 µM [rising, partial curve, poor fit].
Consider `CC12CC(c3ccccc3O1)N(C(=O)c1ccc(Br)o1)C(=O)N2c1ccccc1` (stereo not given), for which, under setting [1], the AC50 was 5.8 µM [falling, single point].
Turning to `CCCC(=O)NC(c1ccccc1Cl)c1ccc2cccnc2c1O` (stereo not given), under setting [1], the AC50 is 4.47 µM [falling, partial curve, poor fit].
With `Cc1ccc(C(NC(=O)N2CC(C)OC(C)C2)C(Cl)Cl)cc1F` (stereo not given), the AC50 under setting [1] was 1.3 µM [falling, full curve, poor fit].
On to `CCOc1cc(S(=O)(=O)N2CCOCC2)ccc1F`, for which the AC50 under setting [1] is 29.1 µM [rising, single point].
Same read-out and setting: to `O=C(NCc1ccccc1)c1ccc(S(=O)(=O)N2CCCc3ccccc32)cc1` belongs 3.55 µM [rising, single point].
Take `CC(C)CC1NC(=O)c2ccccc2-n2c1nc1cc(F)ccc1c2=O` (stereo not given): the AC50 under setting [1] is 18.4 µM [rising, single point].
In the case of `CCN(CC)C(=O)CSc1nc2ccccc2c(=O)n1Cc1ccco1`, the AC50 under setting [1] was 0.794 µM [falling, full curve, poor fit].
For the molecule `Cc1ccc(NC(=O)Cn2c(-c3cncs3)nc3ccccc32)cc1Br`, the AC50 under setting [1] is 0.562 µM [rising, partial curve, poor fit].
On the same count and under the same terms, to `C/C(=C\C(=O)c1ccccc1)NNC(=O)c1ccc(Cl)cc1` belongs 12.6 µM [falling, partial curve, poor fit]; to `CC(C)NC(=O)NC(=O)CSc1nnc(COc2ccccc2F)n1C(C)C1CC2CCC1C2` (stereo not given), 20 µM [falling, single point].
Same read-out and setting: to `CCCc1nccn1S(=O)(=O)c1cc(Br)ccc1OC` belongs 6.31 µM [rising, single point]; to `COc1ccc(C)cc1S(=O)(=O)N1CCN(S(=O)(=O)c2cc(C)ccc2OC)C(C)C1` (stereo not given), 20.6 µM [rising, single point]; to `COc1ccc(-n2ncc3c(NCC(C)C)ncnc32)cc1`, 0.517 µM [rising, full curve].
For `O=C(NCCc1cccc(Cl)c1)c1ccc(Cl)c([N+](=O)[O-])c1`, the AC50 under setting [2] is 20.6 µM [rising, partial curve, poor fit].
As for `COc1ccc(NC(=S)NC(=O)c2csnn2)cc1`, under setting [1], the AC50 is 0.794 µM [falling, full curve].
The same measure, in the same setting: the same measure for `CCN1CCN(CCCNC(=O)C2CCCN(c3nc4c(C)cc(C)cc4s3)C2)CC1` (stereo not given): 22.4 µM [falling, single point]; for `COc1ccc(/C=C/C(=O)c2ccc(Cl)cc2)c(OC)c1`: 35.5 µM [falling, single point].
In the case of `O=C(NCc1ccc(F)cc1)c1cc2sccc2n1Cc1ccc(F)cc1`, the AC50 under setting [1] is 11.6 µM [rising, partial curve, poor fit].
Still for that read-out and setting: the same measure for `CCOC(=O)C(=NC1CCCCC1)NNc1cccc(C(F)(F)F)c1`: 11.6 µM [rising, partial curve].
As to `Clc1cnc(N/N=C/c2ccco2)c(Cl)c1`, the AC50 was 18.4 µM [falling, partial curve] under setting [1] and 20.6 µM [falling, single point] under setting [2].
With `O=C(NCc1ccc(F)cc1)c1ccc(S(=O)(=O)Nc2cccc(C(F)(F)F)c2)cc1`, under setting [1], the AC50 is 23.1 µM [falling, single point].
With `CCC(CO)Oc1cc(NC(=O)c2cccc3ccccc23)c2ncn(C(C)C)c2c1` (stereo not given), the AC50 under setting [1] is 32.6 µM [falling, single point].
Same read-out and setting: to `COc1ccc(OCCNC(=O)/C=C/c2ccccc2)cc1` belongs 12.6 µM [rising, partial curve]; to `CS(=O)(=O)c1ccc(Cl)c(NC(=O)COC(=O)CNC(=O)c2ccccc2)c1`, 31.6 µM [rising, single point].
On to `CC(C)(C)c1ccc(OCC(=O)Nc2ccc3c4c(cccc24)C(=O)NC3=O)cc1`, for which the AC50 was 3.16 µM [rising, partial curve] under setting [1] and 6.31 µM [falling, single point] under setting [2].
For the molecule `Cc1nc(C(=O)NCCCO)cc2c1[nH]c1ccccc12`, the half-maximal activity concentration (AC50) under setting [1] was 17.8 µM [falling, single point].
Regarding `CCOC(=O)CSc1nc(C)c2cccc(C)c2n1`, the AC50 reads like this: under setting [1], 3.55 µM [rising, single point]; under setting [2], 15.8 µM [falling, partial curve].
As to `CC(=O)c1ccc(N2CCN(C(=O)c3noc4c3CSc3ccccc3-4)CC2)cc1`, the AC50 under setting [1] is 20 µM [falling, single point].
The same measure, in the same setting: to `CN(CC(=O)NC(=O)NC1CCCCC1)CC(=O)Nc1ccc(OC(F)(F)F)cc1` belongs 9.2 µM [falling, partial curve, poor fit]; to `Cc1ccc(-c2nc3cc(C)ccc3o2)cc1`, 32.6 µM [falling, single point].
For the molecule `CC(/C=C/c1ccc(N(C)C)cc1)=N\N=C(/N)SC1CC(=O)N(c2ccc(C(=O)O)cc2)C1=O` (stereo not given), under setting [1], the AC50 is 0.58 µM [falling, full curve, poor fit].
